Measured values as given in PubChem BioAssay AID493014 (National Center for Advancing Translational Sciences (NCATS), 2011).
The other results are listed elsewhere or left out. Shown are side measurements of this screen, not its main read-out; they come without a call. Compounds called inactive in the main read-out are mostly missing here. Potencies come from curve fits of mixed quality, noted in brackets.

Test: qHTS Assay to Find Inhibitors of Chronic Active B-Cell Receptor Signaling
Conditions: ABC-DLBCL IkBa-CBG/CBR reporter, luminescence ratio (green luciferase fused to IkBa over red control in TMD8 lymphoma cells), 4 h
In short: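 TMD8 human ABC-DLBCL cells with doxycycline-inducible IκBα–green luciferase fusion and unfused red luciferase, in 0.5% FBS medium; compounds up to 46 uM, 4 h at 37C. Green/red luminescence ratio, filter-overlap corrected, fitted to concentration-response curves.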

[1] = measured here: CBR red luminescence, cell number

Compound	AC50 [1]	AC50 (measured here: IkBa-CBG green luminescence)
COc1ccc(Cl)cc1NC(=O)C/C(C)=N/NC(=O)CCc1ccccc1	7.08 µM [falling, partial curve]	
O=C(CN1CCOCCOCCOCCOCC1)Nc1ccccc1	14.6 µM [falling, partial curve]	
Cc1ccc2c(c1)oc(=O)n2CC(=O)c1ccccc1	0.447 µM [rising, full curve, poor fit]	
COc1cc(NC(=O)CSc2c3c(nc4ccccc24)CCC3)cc(OC)c1OC	18.4 µM [falling, single point]	
Cc1c(C(=O)NCc2cccnc2)sc2nc(-c3ccc(F)cc3)cn12	29.1 µM [falling, single point]	
Cc1nc(Cc2nnc(SC(C)C(=O)N3c4ccccc4NC(=O)C3(C)C)o2)cs1 (centres undefined)	0.164 µM [falling, full curve, poor fit]	
Cc1cccc2c(N=Nc3ccc(S(=O)(=O)Nc4ccc(Cl)cc4)cc3[N+](=O)[O-])c(O)[nH]c12	0.708 µM [rising, full curve, poor fit]	
COC(=O)C(C)N(C(=O)c1ccc(Cl)cc1)c1c(C)cccc1C (centres undefined)	25.9 µM [falling, single point]	
CC1c2[nH]c3ccccc3c2C[C@H]2C(=O)N(CCO)CC(=O)N12 (some centres undefined)	35.5 µM [rising, single point]	
COc1cc(C(=O)Nc2ccncc2)c([N+](=O)[O-])cc1OC	2.82 µM [falling, partial curve, poor fit]	
O=C(CN1CCN(c2ccccn2)CC1)Nc1ccc(F)cc1F	8.91 µM [falling, partial curve, poor fit]	
CCCCC(=O)Nc1nc2ccc(C(=O)OC)cc2s1	7.08 µM [falling, partial curve]	
O=C1CSC(=NC2CCCCC2)N1	0.651 µM [falling, full curve, poor fit]	
Cc1cc(C)c2c(N)c(C(=O)NCc3ccco3)sc2n1	16.4 µM [falling, partial curve, poor fit]	
CC1CCN(Cc2nc(-c3ccccc3)no2)CC1	3.98 µM [rising, full curve, poor fit]	
O=C(O)CC/C(=N/NC(=O)CNC(=O)Cc1ccc(Cl)cc1)c1ccccc1	4.47 µM [falling, partial curve, poor fit]	
CCc1n[nH]c(=S)n1/N=C/C(C)=C\c1ccccc1	12.6 µM [rising, partial curve, poor fit]	

Compound	AC50 [1]	AC50 (measured here: IkBa-CBG green luminescence)
COc1ccc(C(=O)N2CCN(c3ccc(NC(=O)Cc4ccccc4)cc3)CC2)cc1	3.98 µM [falling, partial curve, poor fit]	
COc1ccc2c(=O)c3c(=O)n(Cc4ccco4)c(-c4ccco4)nc3oc2c1	5.8 µM [falling, partial curve, poor fit]	
O=C(CNC(=O)c1ccccc1Cl)N/N=C/c1ccc([N+](=O)[O-])s1	29.1 µM [falling, single point]	
COc1ccc(NC(=O)c2sccc2OS(=O)(=O)N(C)C)cc1	14.1 µM [rising, single point]	
CN1C(=O)/C(=C/c2ccccc2Cl)Sc2ccc(C(=O)N3CCCC3)cc21	10 µM [falling, partial curve, poor fit]	
Cc1cc(N2CCCCC2)nc(SCC(=O)c2ccccc2)n1	17.8 µM [falling, single point]	
O=C(Nc1cccc(S(=O)(=O)N2CCCCC2)c1)C1CCCC1	0.164 µM [rising, full curve, poor fit]	
CC(C)(C)CC(=O)Nc1nnc(-c2cccs2)s1	0.00461 µM [rising, full curve, poor fit]	
CCN(CC)S(=O)(=O)c1cc(-c2nnc(-c3ccc(Br)cc3)o2)ccc1Br	32.6 µM [rising, single point]	
CS(=O)(=O)N1N=C(c2ccco2)CC1c1ccccc1Cl (centres undefined)	35.5 µM [rising, single point]	
O=C(CSc1nc2ncc(Cl)cc2[nH]1)NCCc1ccc(F)cc1	12.6 µM [falling, partial curve, poor fit]	
CSc1ccccc1NC(=O)Cc1ccc(Br)cc1	8.2 µM [falling, partial curve]	
C/C(=N\Nc1cccc(C(=O)O)c1)c1ccc(Cl)s1	0.141 µM [falling, full curve, poor fit]	
O=C(Nc1ccc(Cl)cc1)N1CCCN(Cc2ccccc2F)C1	6.51 µM [rising, full curve, poor fit]	
C/C(=N\NC(=S)Nc1ccccc1C)c1ccc(O)cc1	35.5 µM [falling, single point]	35.5 µM [falling, single point]
O=C(NCc1cccc(Cl)c1)c1ccc(-c2csnn2)cc1	11.2 µM [falling, partial curve, poor fit]	

Whole records from above:
`Cc1nc(Cc2nnc(SC(C)C(=O)N3c4ccccc4NC(=O)C3(C)C)o2)cs1` (centres undefined) in the list: AC50 [1]: 0.164 µM [falling, full curve, poor fit]
`CN1C(=O)/C(=C/c2ccccc2Cl)Sc2ccc(C(=O)N3CCCC3)cc21` in the list: AC50 [1]: 10 µM [falling, partial curve, poor fit]
